# According to PubChem BioAssay AID2417 (National Center for Advancing Translational Sciences (NCATS), 2010):
# Out of some 140,000 compounds screened, about 4,300 (3.1%) were called active. This list was built around the results that the source calls inconclusive (neither active nor inactive); the mix of calls is not that of the screen.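 The calls were made as follows: active = readout at or below -70, meaning at least 70% loss of cells showing the perinucleolar compartment, a nuclear body marking cancer cells; inconclusive = readout between -30 and a set limit; inactive = the rest.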
# Test: High Content Assay for Compounds that inhibit the Assembly of the Perinucleolar Compartment;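 also: plate controls were DMSO wells for no effect and camptothecin positive control wells for full effect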
# Details: PC3M PTB-GFP, PNC prevalence imaging, 16 h; at 10 µM; hits give low values
# How it was run: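 Compounds are pinned in duplicate onto adhered PC3M cells stably expressing GFP-tagged PTB and incubated 16 h at 37 C. Cells are then fixed, nuclei stained with Hoechst, and PNC-positive cells counted.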
row,SMILES,"activity change (PNC), negative = inhibition"
1,COC(=O)[C@@H](NC(=O)O[C@@H]1C(=O)c2ccc(OC)cc2O[C@H]1c1cccc(C(F)(F)F)c1)C(C)C,inconclusive: -46.6%
2,Cc1c(C(=O)N/N=C/c2cccs2)nc2ccccn12,inactive: 11.9%
3,Cc1cccc(C(=O)N2CCN(C(=O)c3cccc(C)c3)C(C)C2)c1 (centres undefined),inconclusive: -30.6%
4,Cc1c(C(=O)N/N=C/c2ccc(N(C)C)cc2)[nH]c2ccc(Cl)cc12,active: -113%
5,O=C1CC(N2CCN(c3ccccc3F)CC2)C(=O)N1c1ccc2c(c1)OCCO2 (centres undefined),inactive: 29.6%
6,COc1cc(/C=C/C(=O)N2c3ccccc3Sc3ccc(C(F)(F)F)cc32)cc(OC)c1OC,inactive: -24.5%
7,COc1ccc(/C=C/C(=O)Nc2cc(C)nn2-c2nc3ccccc3[nH]2)cc1,inconclusive: -43.1%
8,O=c1cc(N2CCCCC2)c(-c2ccccc2)nn1Cc1c(Cl)cccc1Cl,inactive: 59.4%
9,COC(=O)c1[nH]c(C)c(/C(O)=C2\C(=O)C(=O)N(CCN(C)C)C2c2cccc(OC)c2OC)c1C (centres undefined),inconclusive: -36.7%
10,CNC(=O)[C@@H]1C[C@H]1[C@@H](NC(=O)OCc1ccccc1)c1ccccc1,inconclusive: -79.7%
11,CCC1Sc2ccccc2N(CC(=O)NCc2ccc3c(c2)OCO3)C1=O (centres undefined),inconclusive: -33.1%
12,O=C(CCN1C(=O)C2C3C=CC(C3)C2C1=O)N1CCN(c2ccccc2Cl)CC1 (centres undefined),inconclusive: -35.5%
13,Cc1ccc(-n2nc(C)c(/C=N/NC(=O)c3cccnc3)c2Cl)cc1,inconclusive: -37.6%
14,COc1ccc(OCC(=O)OCCNC(=O)c2cccnc2)cc1,inconclusive: -35.7%
15,Oc1ccc(-c2nc3ccc4ccccc4c3c3c2CCC3)cc1O,inactive: -29.1%
16,Nc1nc2n(n1)C(c1ccc(Cl)cc1)CC(c1ccc(F)cc1)N2 (centres undefined),active: -119%
17,Cc1cc(/C=C2/NC(=O)N(Cc3ccccc3F)C2=O)c(C)n1C,inconclusive: -34.5%
18,CCOc1cc(/C=N/O)ccc1OCc1ccc([N+](=O)[O-])cc1,inconclusive: -55.2%
19,CC(C)C(=O)NC(=S)NCC(=O)c1ccccc1,inactive: 38.2%
20,O=C1CSC(c2ccc3c(c2)OCO3)N1c1ccc(Oc2ccccc2)cc1 (centres undefined),inactive: 0.183%
21,COc1ccc(/C(C)=N/Nc2ncc(Cl)cc2Cl)c(O)c1,inconclusive: -63.1%
22,CNCC/C=C1/c2ccccc2CSc2ccccc21,inactive: 2.77%
23,CCC1(C)Cc2c(sc3c2c(=O)n(C)c2nnc(SCc4ccccc4)n32)CO1 (centres undefined),inconclusive: -76.3%

# Sorted by molecular weight (ascending): 6 of the compounds above
row,SMILES,"activity change (PNC), negative = inhibition"
19,CC(C)C(=O)NC(=S)NCC(=O)c1ccccc1,inactive: 38.2%
18,CCOc1cc(/C=N/O)ccc1OCc1ccc([N+](=O)[O-])cc1,inconclusive: -55.2%
14,COc1ccc(OCC(=O)OCCNC(=O)c2cccnc2)cc1,inconclusive: -35.7%
10,CNC(=O)[C@@H]1C[C@H]1[C@@H](NC(=O)OCc1ccccc1)c1ccccc1,inconclusive: -79.7%
7,COc1ccc(/C=C/C(=O)Nc2cc(C)nn2-c2nc3ccccc3[nH]2)cc1,inconclusive: -43.1%
8,O=c1cc(N2CCCCC2)c(-c2ccccc2)nn1Cc1c(Cl)cccc1Cl,inactive: 59.4%

# Next part

row,SMILES,"activity change (PNC), negative = inhibition"
1,CCc1c(C)nc(SCC(=O)c2ccc(C)c(C)c2)[nH]c1=O,inconclusive: -73.7%
2,COc1cc(CN(C)CC(=O)c2[nH]c(C)c(C(C)=O)c2C)ccc1OC(F)F,inactive: -28.7%
3,CCOC(=O)C1CCCN(C(=O)Cn2sc3nc(C)cc(C)c3c2=O)C1 (centres undefined),inconclusive: -54.3%
4,COCCCNC(=O)CCCn1c(=O)c2ccccc2n(CC(=O)Nc2c(C)cccc2C)c1=O,inconclusive: -69.5%
5,COc1ccc(C=O)cc1COc1ccc(Cl)cc1[N+](=O)[O-],inactive: 57.2%
6,CC(Cc1ccccc1)C(=O)Nc1ccccc1 (centres undefined),inactive: -27.5%
7,Cc1ccc(C2C(C=Nc3c(C)n(C)n(-c4ccccc4)c3=O)=C(c3ccccc3)Oc3ccccc32)cc1 (centres undefined),inconclusive: -46%
8,CC(C)=C(NC(=O)c1ccccc1)C(=O)N/N=C/c1ccc(O)cc1,inconclusive: -38.5%
9,COCCn1cnc2c1c(=O)n(CC(=O)Nc1cc(C)on1)c(=O)n2Cc1ccccc1,inconclusive: -64.7%
10,O=C(CCc1ccc(S(=O)(=O)NC2CCCCC2)cc1)Nc1ccccc1,inconclusive: -57%
11,Cc1ccc(OCC(=O)Nc2ccc([N+](=O)[O-])cc2)cc1,inactive: 56.5%
12,CC(C)(C)NS(=O)(=O)c1ccc(CCC(=O)Nc2cc(Cl)ccc2Oc2ccccc2)cc1,inconclusive: -36.1%
13,CCc1ccc(NC(=O)C(C)OC(=O)c2ccc(NS(=O)(=O)c3ccc(C)c([N+](=O)[O-])c3)cc2)cc1 (centres undefined),inconclusive: -34.5%
14,COc1ccc(NC(=O)C2C3C=CC(O3)C2C(=O)NCc2cccnc2)cc1 (centres undefined),inconclusive: -36.5%
15,COc1ccc(CCN2C(=O)c3cccc4cccc(c34)C2=O)cc1OC,inactive: 26.8%
16,Cc1ccc(P(=Nc2ccccc2)(N2CCOCC2)N2CCOCC2)o1,active: -91.7%
17,O=C1c2ccccc2C(=O)N1CC1CCCO1 (centres undefined),inactive: -17.6%
18,CC(=O)Nc1nonc1-c1nc2ccccc2n1Cc1nnc(C)o1,active: -87.3%
19,CCCS(=O)(=O)N1CCN(C(=O)COc2ccccc2)CC1,inconclusive: -79.1%
20,O=C(c1cccc(-c2ccc(O)cc2)c1)N1CCOCC1,inactive: 18.1%
21,COc1ccc2c(c1OC)C(=O)N(c1ccc(C)c(C)c1)C2=O,inconclusive: -42.9%
22,CCCCC1CCC(C(=O)OCC(=O)Nc2ccc(S(N)(=O)=O)cc2)CC1 (centres undefined),inconclusive: -55.7%
23,O=C(CCC(=O)OCC(=O)c1cccc([N+](=O)[O-])c1)Nc1ccccc1Cl,inactive: 5.7%

row,SMILES,"activity change (PNC), negative = inhibition"
1,N#CC1=C(N)Oc2nc(-c3ccccc3)[nH]c2C1c1cccnc1 (centres undefined),inconclusive: -36.1%
2,COc1cc(NC(=O)c2cccc([N+](=O)[O-])c2C)ccc1NC(=O)c1ccco1,inconclusive: -51.1%
3,OCCN1CCN(C(=S)c2ccc(Cl)cc2)CC1,inconclusive: -38%
4,Cc1cc(/C([O-])=C(/C(=S)Nc2ccccc2)[n+]2ccccc2)c(C)n1-c1ccccc1,inconclusive: -42.4%
5,CC(C)C(=O)N1CCC(CN=CC2=C(O)CC(C)(C)CC2=O)CC1,inconclusive: -37.7%
6,Cc1ccc(NS(=O)(=O)c2cc(C(=O)N3CCOCC3)ccc2C)cc1,inconclusive: -59%
7,CC(C)(C)C1CCc2c(sc(NC(=O)C3CC=CCC3C(=O)O)c2C#N)C1 (centres undefined),inconclusive: -47.1%
8,CC1Cc2ccccc2N1Cc1cc(=O)n2ccsc2n1 (centres undefined),inconclusive: -32.2%
9,CN(C)CCC(=O)c1ccc2c(c1)OCO2,inactive: 5.7%
10,COC(=O)/C(=C\C(=O)c1ccccc1)Nc1cccc(C(F)(F)F)c1,inactive: -12.6%
11,O=C(NCc1ccccn1)c1ccc(CNS(=O)(=O)c2cccc(Cl)c2)cc1,inactive: -19.7%
12,CCN1CCN(CCC(=O)Nc2ccccc2OC)CC1,inactive: -8.45%
13,CC(C)(C)c1csc(NC(=O)CSc2nc3ccccc3c(=O)[nH]2)n1,inactive: 19.8%
14,CCN(Cc1ccccc1)C(=O)CCCOc1ccccc1,inconclusive: -35.9%
15,O=C1OC(c2ccccc2)=N/C1=C\N1CCCCC1,inactive: 48.4%
16,S=C(NCC1CCCCC1)Nc1cccnc1,inconclusive: -46%
17,COCCn1c(=NC(=O)CN2C(=O)CCC2=O)sc2cc(S(N)(=O)=O)ccc21,inconclusive: -77.7%
18,O=C(Cn1cnc2c(cnn2-c2ccc(Cl)cc2)c1=O)NC1CCCCC1,inconclusive: -60.8%
19,CC(=O)Nc1ccc(NC(=O)Cn2cnc3c(cnn3C(C)(C)C)c2=O)cc1,inconclusive: -49.8%
20,CCCCNS(=O)(=O)c1ccc(NC(=O)C(Sc2ccccc2)c2ccccc2)cc1 (centres undefined),inactive: 20.7%
21,C=C(C)Cn1c(CCNC(=O)C(C)C)nc2ccccc21,inconclusive: -35.3%
22,CN1CCN(C(=O)Nc2cccc3ccccc23)CC1,inconclusive: -46.8%
23,Cn1c(COc2ccc3ccccc3c2)nnc1SCC(=O)OC1CCCCC1,inactive: 12.1%

row,SMILES,"activity change (PNC), negative = inhibition"
1,O=C1CC(N2CCN(c3cccc(C(F)(F)F)c3)CC2)C(=O)N1c1ccccc1 (centres undefined),inconclusive: -45.3%
2,COc1cc(OC)c(-c2nn3c(-c4cccnc4)nnc3s2)cc1OC,inactive: -1.99%
3,O=C1/C(=C/c2cccnc2)SC(=S)N1c1ccccc1,inactive: 26.1%
4,O=C(c1cccs1)N(CC1CCCO1)c1nc(-c2ccccc2)cs1 (centres undefined),inconclusive: -48.4%
5,Cc1cc(C)n(C(=O)c2ccc(C)o2)n1,inactive: 20.3%
6,CCOc1ccc(-c2cc(C(=O)N3CCN(C)CC3)c3ccccc3n2)cc1,inactive: 23%
7,COC(=O)CC1COc2ccccc2N1C(=O)c1ccc(C(C)(C)C)cc1 (centres undefined),inactive: 34%
8,COc1ccc(C2C(C(C)=O)=C(O)C(=O)N2CCO)c(OC)c1 (centres undefined),inconclusive: -30.7%
9,C=CCNC(=S)NNC(=O)c1ccccc1,inconclusive: -38.5%
10,CCC(C)NC(=O)C(=O)NC1CCCC1 (centres undefined),inconclusive: -76.9%
11,O=C(NCCc1ccc(Cl)cc1)C1CCN(S(=O)(=O)c2cccs2)CC1,inactive: 24.6%
12,O=C(Nc1ccc2ccccc2c1)c1ccc(NS(=O)(=O)c2ccc(Br)s2)cc1,inactive: 77.6%
13,COc1ccc(NC(=O)Cc2c(Sc3ccccc3)c3ccccc3n2C)cc1,inconclusive: -34.2%
14,O=C(CSc1nnc(-c2cccs2)n1-c1ccccc1)c1ccc2c(c1)OCCO2,inactive: -17.8%
15,CNC(=O)c1ccsc1NC(=O)c1ccc(Cl)s1,inactive: 9.61%
16,N=c1c(C(=O)NCc2ccco2)cc2c(=O)n3ccccc3nc2n1CCc1ccccc1,inconclusive: -63.4%
17,CCOc1ccccc1C1CC(c2ccc(F)cc2)Nc2nc(N)nn21 (centres undefined),inconclusive: -43%
18,Cc1oc(-c2ccccc2)[n+]([O-])c1C,inactive: -20%
19,COC(=O)c1c(C)[nH]c(C(=O)COC(=O)Cc2ccc3c(c2)OCCO3)c1C,inconclusive: -47.8%
20,Clc1ccc(-c2cn3c(n2)CCC3)cc1,inconclusive: -71.3%
